# Literature values as cited in patent publication US20040266742A1, “Combination therapy of an sodm and a corticosteroid for prevention and/or treatment of inflammatory disease” (priority 2001, published 2004).
# At least one compound was matched to its structure with a doubt left.
# What was measured:
# [1] = relative potency; cited from earlier work
# [2] = relative potency; cited from earlier work; remark: listed apart in the source
smiles,measurement,setting,value
C[C@]12CCC(=O)C=C1CC[C@H]1[C@@H]3CC[C@](O)(C(=O)CO)[C@@]3(C)C[C@H](O)[C@@]12F [Fludrocortisone],Na+-retaining Potency,[1],12.5
same,Anti-inflammatory Potency,[2],10
